# Measured values: PubChem BioAssay (EPA / NIEHS)
# Amino acid sequences for entries named in this document (tags omitted). A change or cut given only in a name is not applied to a line headed by its entry.
# UniProt P19793: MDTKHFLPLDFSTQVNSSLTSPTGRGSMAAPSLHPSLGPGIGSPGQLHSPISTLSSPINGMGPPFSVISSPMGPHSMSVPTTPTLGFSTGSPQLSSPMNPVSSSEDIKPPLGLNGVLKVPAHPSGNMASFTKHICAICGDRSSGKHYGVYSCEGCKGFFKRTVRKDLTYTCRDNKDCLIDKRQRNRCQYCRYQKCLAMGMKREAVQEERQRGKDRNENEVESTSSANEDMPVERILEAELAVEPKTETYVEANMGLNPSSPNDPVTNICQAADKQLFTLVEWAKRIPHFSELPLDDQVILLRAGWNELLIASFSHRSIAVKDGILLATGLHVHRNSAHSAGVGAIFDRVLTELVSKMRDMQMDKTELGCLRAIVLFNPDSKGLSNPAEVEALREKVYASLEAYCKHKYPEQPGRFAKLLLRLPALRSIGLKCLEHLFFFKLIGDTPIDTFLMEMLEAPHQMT
# UniProt P04637, whole entry, looked up: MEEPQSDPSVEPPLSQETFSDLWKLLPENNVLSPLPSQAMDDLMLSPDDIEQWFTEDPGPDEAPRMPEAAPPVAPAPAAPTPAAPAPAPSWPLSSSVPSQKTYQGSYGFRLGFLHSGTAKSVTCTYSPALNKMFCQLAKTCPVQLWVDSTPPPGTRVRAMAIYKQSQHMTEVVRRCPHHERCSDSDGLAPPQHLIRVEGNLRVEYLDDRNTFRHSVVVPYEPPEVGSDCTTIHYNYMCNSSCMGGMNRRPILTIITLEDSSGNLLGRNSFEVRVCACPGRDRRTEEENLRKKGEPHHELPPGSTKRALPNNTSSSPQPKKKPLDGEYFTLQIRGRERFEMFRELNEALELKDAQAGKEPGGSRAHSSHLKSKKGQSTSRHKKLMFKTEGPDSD
# UniProt P37231: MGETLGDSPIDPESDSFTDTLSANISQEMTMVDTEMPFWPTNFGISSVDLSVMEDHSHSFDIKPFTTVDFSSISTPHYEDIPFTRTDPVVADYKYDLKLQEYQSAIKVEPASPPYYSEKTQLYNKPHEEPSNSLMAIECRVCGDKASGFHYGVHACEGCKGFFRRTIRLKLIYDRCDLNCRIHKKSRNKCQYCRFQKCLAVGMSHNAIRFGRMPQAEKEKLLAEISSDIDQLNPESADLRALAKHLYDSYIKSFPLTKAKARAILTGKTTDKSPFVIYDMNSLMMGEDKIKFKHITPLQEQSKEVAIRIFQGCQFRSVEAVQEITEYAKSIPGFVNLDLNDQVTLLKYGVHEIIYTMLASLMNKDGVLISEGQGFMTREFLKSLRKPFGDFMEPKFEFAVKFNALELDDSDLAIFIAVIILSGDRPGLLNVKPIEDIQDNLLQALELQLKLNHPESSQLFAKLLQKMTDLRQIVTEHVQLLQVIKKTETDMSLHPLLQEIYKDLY
# “And” between values parts separate entries of the source, which are not always exact repeats. Equal values may be shown once. The shares of active, inactive and inconclusive entries below differ from those in the screen. For some assays here: Potencies beside an inconclusive call are fits to weak or partial responses and may not hold up. Some compounds were tested as several samples or in several runs, with calls that do not always agree. The source made the active and inactive calls. Rule for the calls: active = hit-call score of the fitted dose curve at least 0.9, where 1 is the maximum; inconclusive = response in the unintended direction; inactive = score below 0.9.
# Experiments:
# [1] = target: Retinoic acid receptor RXR-alpha (Homo sapiens) (UniProt P19793); test: OT_NURR1_NURR1RXRa_0480: Odyssey Thera (OT) 8-hour HEK293T Protein Complementation Assay for Nurr1/retinoid X receptor (RXR) (AID 2283385)
# How it was run: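 Read-out: fluorescence from protein-fragment complementation between Nurr1 and RXRα in human HEK293T cells, 8 h after dosing. DMSO served as negative control; increased signal counted as activity.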
# [2] = LTEA_HepaRG_LDH_cytotoxicity: Cytotoxicity Assessment in the Life Technologies and Expression Analysis (LTEA) Assay (AID 2283563)
# How it was run: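 Spent-medium LDH after 48 h chemical exposure of HepaRG cells in serum-free induction medium; eight concentrations, half-log dilutions from 100 uM, duplicate wells, fitted upward relative to 0.5% DMSO.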
# [3] = TOX21_p53_BLA_p2_viability: Viability Assessment in the Tox21 HCT-116 p53 Agonism Beta-lactamase Assay, Phase 2 (AID 2283591);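 note: compound exposure lasted 16 h at 37 °C; actives lower the ATP signal meaning cytotoxicity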
# How it was run: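 Cytotoxicity readout: CellTiter-Glo ATP luminescence, 30 min at room temperature, after the beta-lactamase read. Cells were HCT116 exposed 16 h at 37C to compounds pin-transferred at 217-fold dilution from DMSO stocks.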
# [4] = TOX21_p53_BLA_p3_viability: Viability Assessment in the Tox21 HCT-116 p53 Agonism Beta-lactamase Assay, Phase 3 (AID 2283593);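 note: cells exposed to compound for 16 h before reading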
# How it was run: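 Cellular ATP was quantified by CellTiter-Glo luminescence, read after 30 min at room temperature. Beforehand, HCT116 cells (4000/well) received compound 5 h post-seeding, 217-fold diluted from DMSO, then incubated 16 h at 37C.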
# [5] = target: Retinoic acid receptor RXR-alpha (Homo sapiens) (UniProt P19793); test: OT_NURR1_NURR1RXRa_1440: Odyssey Thera (OT) 24-hour HEK293T Protein Complementation Assay for Nurr1/retinoid X receptor (RXR) (AID 2283386)
# How it was run: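 Fluorescence PCA read-out; HEK293T; 24 h post-dose; bait/prey fused to reporter fragments; gain-of-signal fit vs DMSO negative control.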
# [6] = ATG_XTT_Cytotoxicity: Cytotoxicity Assessment in the Attagene TRANS-FACTORIAL HepG2 Assay (AID 2283584);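 for AC50: XTT signal for cell number as viability in transfected HepG2 cells; cells exposed to compound for 24 h before reading; active means loss of viability signal versus DMSO baseline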
# How it was run: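 24 h chemical exposure of reporter-transfected HepG2; XTT signal loss vs DMSO indicates cytotoxicity.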
# [7] = target: Cellular tumor antigen p53 (Homo sapiens) (UniProt P04637); test: TOX21_p53_BLA_p2_ratio: Tox21 HCT-116 p53 Agonism Beta-lactamase Assay, Ratio, Phase 2 (AID 2283592)
# How it was run: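 DMSO-normalized, positive-direction endpoint derived from the 460 nm/530 nm FRET ratio in HCT116 p53 beta-lactamase reporter cells exposed 16 h at 37C and loaded with CCF4-AM for 2 h.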
# [8] = target: Peroxisome proliferator-activated receptor gamma (Homo sapiens) (UniProt P37231); test: OT_PPARg_PPARgSRC1_0480: Odyssey Thera (OT) 8-hour Protein-Complementation Assay for Peroxisome Proliferator-activated Receptor Gamma / SRC-1 Co-activator (AID 2283387);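 note: nuclear to cytoplasmic split Venus YFP fluorescence ratio reporting PPARg SRC-1 interaction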
# How it was run: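 Protein-fragment complementation of split Venus YFP reports PPARg/SRC-1 interaction in HEK293T (transfected 48 h before treatment), exposed 8 h. Readout: N/C fluorescence ratio at 488 nm from imaging, Draq5 for segmentation, positive fit relative to DMSO.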
# [9] = target: Cellular tumor antigen p53 (Homo sapiens) (UniProt P04637); test: TOX21_p53_BLA_p3_ratio: Tox21 HCT-116 p53 Agonism Beta-lactamase Assay, Ratio, Phase 3 (AID 2283596)
# How it was run: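 Cells were seeded at 4000/well, rested 5 h at 37C, then dosed with DMSO compound solutions (217-fold dilution) for 16 h. CCF4-AM substrate was loaded for 2 h at room temperature, and the 460/530 nm emission ratio was fitted for gain of signal versus DMSO.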
# [10] = target: Peroxisome proliferator-activated receptor gamma (Homo sapiens) (UniProt P37231); test: OT_PPARg_PPARgSRC1_1440: Odyssey Thera (OT) 24-hour Protein-Complementation Assay for Peroxisome Proliferator-activated Receptor Gamma/ SRC-1 Co-activator (AID 2283388);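 note: nuclear to cytoplasmic ratio of reconstituted Venus YFP fluorescence in fixed imaged cells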
# How it was run: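 Cells carrying the PPARg/SRC-1 fragment-complementation reporter receive compound for 24 hours, are fixed and counterstained with Draq5, then imaged. Increased nuclear relative to cytoplasmic YFP fluorescence above DMSO baseline indicates binding activity.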
compound,measurement,setting,value
CCCCCCCCCCCCCO,AC50,[1],active: 67.5 µM
same,outcome,[2],inactive
same,AC50,[3],inconclusive: 47.5 µM and inconclusive: 46.5 µM
same,AC50,[4],inconclusive: 46.5 µM
same,outcome,[4],inactive
Cc1cc(C)cc(O)c1,AC50,[1],inconclusive: 51 µM
same,outcome,[5],inactive
same,AC50,[4],inconclusive: 47.2 µM and inconclusive: 85.2 µM
O=NO,AC50,[1],inconclusive: 50 µM
same,AC50,[6],inconclusive: 100 µM
OC1CCCCC1,AC50,[1],inconclusive: 50 µM
same,outcome,[8],inactive
same,AC50,[3],inconclusive: 46.1 µM and inconclusive: 12.4 µM
same,AC50,[4],inconclusive: 46.1 µM and inconclusive: 48 µM
CN(C)CCCN1c2ccccc2Sc2ccc(Cl)cc21,AC50,[1],inconclusive: 29.5 µM and inconclusive: 90.9 µM
same,AC50,[6],active: 43.2 µM
same,AC50,[3],inconclusive: 6.7 µM and active: 73.4 µM
same,AC50,[4],inconclusive: 1.02 µM
same,AC50,[9],inconclusive: 46.1 µM
CC(=O)Nc1cc(S(=O)(=O)O)cc2cc(S(=O)(=O)O)c(N=Nc3ccccc3)c(O)c12,AC50,[1],active: 22.9 µM
same,outcome,[6],inactive
same,outcome,[3],inactive
same,AC50,[4],inconclusive: 46.1 µM
Cc1ccc2oc(CN(Cc3ccccc3)C(=O)Nc3c(F)cc(F)cc3F)c(-c3ccc(Cl)cc3)c2c1,AC50,[1],inconclusive: 44.2 µM
same,AC50,[5],inconclusive: 8.11 µM
same,outcome,[9],inactive
CC(=O)OC1CC(C)OC(C)O1 (configuration not stated),AC50,[1],inconclusive: 50 µM
same,outcome,[6],inactive
O=C1c2c(O)cccc2Cc2cccc(O)c21,outcome,[1],inactive
same,outcome,[6],inactive
same,AC50,[3],inconclusive: 0.0719 nM and inconclusive: 23 µM
same,outcome,[3],inactive
same,AC50,[4],inconclusive: 46.1 µM and inconclusive: 45.6 µM
same,outcome,[4],inactive
same,AC50,[9],inconclusive: 46.1 µM
C=C(C)C(=O)OCCC(C)OC(=O)C(=C)C (configuration not stated),outcome,[1],inactive
same,outcome,[6],inactive
same,AC50,[3],inconclusive: 46.1 µM
same,AC50,[7],inconclusive: 46.1 µM
same,AC50,[4],inconclusive: 46.1 µM
same,AC50,[9],inconclusive: 71.1 µM
CC1CC(O)CC(C)(C)C1 (configuration not stated),AC50,[1],inconclusive: 50 µM
same,outcome,[10],inactive
same,outcome,[3],inactive
same,AC50,[7],inconclusive: 46.1 µM
same,AC50,[9],inconclusive: 23 µM
CCCCCCCCCCCCc1ccccc1S(=O)(=O)O,AC50,[1],active: 76 µM and active: 80.5 µM
same,AC50,[6],active: 156 µM
CCCCCCCCCCCCc1ccccc1,AC50,[1],inconclusive: 50 µM
same,AC50,[5],inconclusive: 12.1 µM
same,AC50,[9],inconclusive: 75.1 µM
COC(=O)c1cccc(C(=O)OC)c1,AC50,[1],inconclusive: 50 µM
same,outcome,[8],inactive
same,AC50,[6],inconclusive: 100 µM
same,AC50,[4],inconclusive: 45.3 µM
same,outcome,[9],inactive
Cc1nc(C)nc(N2C[C@@H](C)N(c3ccnc([C@@H](C)O)n3)[C@@H](C)C2)n1,AC50,[1],inconclusive: 3.58 µM
same,AC50,[5],inconclusive: 4.64 µM and inconclusive: 8.42 µM
same,AC50,[9],inconclusive: 34.7 µM
CCCCCCCCCCCCC[N+](C)(C)Cc1ccccc1,AC50,[1],inconclusive: 25.6 µM
same,AC50,[6],active: 31.7 µM
c1ccc(CNc2ncnc3nc[nH]c23)cc1,AC50,[1],inconclusive: 13.2 µM
same,AC50,[5],inconclusive: 50 µM
same,AC50,[7],inconclusive: 74.7 µM
same,AC50,[9],inconclusive: 87.2 µM
CCCCCCCCC(CO)CCCCCC (configuration not stated),AC50,[1],inconclusive: 50 µM
same,outcome,[6],inactive
COC(=O)c1ccc(I)cc1S(=O)(=O)NC(=O)Nc1nc(C)nc(OC)n1,AC50,[1],inconclusive: 2.41 µM and inconclusive: 50 µM
same,outcome,[5],inactive
same,outcome,[4],inactive
same,AC50,[9],inconclusive: 44.4 µM
CCc1cccc(O)c1,AC50,[1],inconclusive: 51 µM
same,outcome,[5],inactive
same,AC50,[4],inconclusive: 47.2 µM and inconclusive: 279 nM
same,AC50,[9],inconclusive: 46.9 µM
COc1cc(S(=O)(=O)O)c(C)cc1N=Nc1c(O)ccc2cc(S(=O)(=O)O)ccc12,AC50,[1],active: 50 µM and active: 61.4 µM
same,outcome,[6],inactive
same,outcome,[7],inactive
same,AC50,[4],inconclusive: 46.1 µM
CC(O)COc1ccccc1 (configuration not stated),AC50,[1],inconclusive: 50 µM
same,outcome,[6],inactive
same,AC50,[7],inconclusive: 46.6 µM
same,AC50,[4],inconclusive: 46.1 µM and inconclusive: 46.6 µM
same,AC50,[9],inconclusive: 46.1 µM

# Part of the list above, tab-delimited:
compound	measurement	setting	value
C=C(C)C(=O)OCCC(C)OC(=O)C(=C)C (configuration not stated)	outcome	[1]	inactive
CCCCCCCCCCCCc1ccccc1	AC50	[5]	inconclusive: 12.1 µM
Cc1nc(C)nc(N2C[C@@H](C)N(c3ccnc([C@@H](C)O)n3)[C@@H](C)C2)n1	AC50	[9]	inconclusive: 34.7 µM
CCCCCCCCCCCCC[N+](C)(C)Cc1ccccc1	AC50	[1]	inconclusive: 25.6 µM
